Values quoted from earlier work, collected in article PMC7345279 (Antibiotics, 2020).

Tested on: plasma proteins
Details: cited from earlier work

SMILES: CN1C(=O)CN=C(c2ccccc2)c2cc(Cl)ccc21 [diazepam]
- bound (plasma proteins): around 99%
